# Results reported in PubChem BioAssay AID662 (National Center for Advancing Translational Sciences (NCATS), 2007).
# The list shows a part of the results. Further columns of the screen follow, without active or inactive calls. Most of these compounds were active or inconclusive in the main read-out, so they are no random draw. Words in brackets tell the shape of the fitted curve; partial curves, single points and poor fits give uncertain potencies.
# Assay: Cell signaling CRE-BLA (Fsk stim)
# Conditions: CHO CRE-bla reporter (cAMP response element driving beta-lactamase), forskolin EC10, beta-lactamase ratio; measured here: 460 nm blue channel
# In short: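 CHO CRE-bla cells, overnight plating in Opti-MEM with 0.5% dialyzed FBS; cpd titration + EC10 NKH 477, 3 h 37 °C; CCF4 2 h RT; ex 405/em 460 vs 530 ratio → %Activity, AC50.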
row,Structure (SMILES),AC50
1,COc1cccc(NC(=O)N2CCC(C(=O)Nc3ccc(C)cc3C)CC2)c1,"0.0501 µM [falling, full curve]"
2,COc1cc2c(cc1OC)CN(C(=O)CC1CC3CCC1C3)CC2 (centres undefined),"3.98 µM [falling, partial curve]"
3,CCn1ccc(C(=O)Nc2ccc(S(=O)(=O)Nc3ccccc3OC)cc2)n1,"0.501 µM [falling, single point]"
4,O=C(NCC(=O)N(CCc1ccccc1)C(C(=O)NC1CCCC1)c1cccnc1)c1ccco1 (centres undefined),"0.126 µM [falling, full curve, poor fit]"
5,Cc1cnc(CNc2nc(-c3cccnc3)nc3ccccc23)cn1,"12.6 µM [rising, partial curve]"
6,COc1ccc(-c2nc(NC(=O)C3CCN(c4nc5ccccc5o4)CC3)sc2C)cc1,"12.6 µM [falling, partial curve]"
7,Nc1[nH]nc2nc(N3CCOCC3)nc(-c3ccccc3)c12,"25.1 µM [rising, single point]"
8,COC(=O)c1[nH]c2ccccc2c1NC(=O)CN1CCCc2ccccc21,"25.1 µM [rising, single point]"
9,COc1cc(C(=O)NCCc2nc3ccccc3n2C)cc(OC)c1OC,"7.94 µM [rising, partial curve]"
10,C[C@@](N)(C(=O)O)c1ccc(P(=O)(O)O)cc1,"31.6 µM [falling, single point]"
11,COc1ccc(C(=O)Nc2ccccc2-c2nnn(CC(=O)NCc3ccco3)n2)cc1,"3.16 µM [rising, single point]"
12,Cc1oc(C(=O)O)cc1COc1ccc2c3c(c(=O)oc2c1C)CCCC3,"0.316 µM [falling, partial curve, poor fit]"
13,Cc1cccc(C)c1NC(=O)CSCCO,"0.126 µM [falling, single point]"
14,CC(Oc1ccc(Br)cc1)C(=O)N1CCc2ccccc21 (centres undefined),"12.6 µM [falling, single point]"
15,CCCn1nc(NS(C)(=O)=O)c2cc3cccc(C)c3nc21,"3.16 µM [falling, full curve, poor fit]"
16,COc1cccc(Cn2c(=O)c(C)nc3cnc(OC)nc32)c1,"5.01 µM [rising, full curve]"
17,C#CCN1C(=O)C(O)(CC(=O)c2cccc(OC)c2)c2ccccc21 (centres undefined),"0.0794 µM [falling, full curve, poor fit]"
18,CC(C)Cn1c(CN2C(=O)c3ccccc3C2=O)nc2ccccc2c1=O,"6.31 µM [rising, partial curve]"
19,Cc1ccc(C2C3=C(CCCC3=O)Nc3[nH]c(=S)[nH]c(=O)c32)cc1 (centres undefined),"31.6 µM [falling, single point]"
20,CCOc1ccc2c(c1)cc(CN(C(=O)CC)C1CCCCC1)c1nnnn12,"10 µM [rising, partial curve]"
21,C=CCOn1c(=O)c(C)[n+]([O-])c2ccccc21,"3.98 µM [rising, partial curve, poor fit]"
22,CCOC(=O)c1cccc(C(=O)OCC)n1,"2 µM [rising, full curve]"
23,Cc1cc(C)nc(-n2nc(C)cc2NC(=O)CN2CCCC(C)C2)n1 (centres undefined),"12.6 µM [rising, partial curve]"

row,Structure (SMILES),AC50
1,CCOC(=O)c1ccc(NC(=O)Oc2ccccc2)cc1,"0.0631 µM [rising, single point]"
2,CCOC(=O)c1oc2ccccc2c1NC(=O)c1cccc(OC)c1OC,"1.58 µM [rising, full curve]"
3,O=C(CSc1nc2ccncc2[nH]1)Nc1ccccc1C(F)(F)F,"1.26 µM [falling, partial curve]"
4,Cc1ccc(C(=O)n2cnnc2N)cc1C,"3.98 µM [falling, full curve]"
5,O=C(CSc1ccc2c(c1)OCCO2)Nc1ccc(Cl)cn1,"12.6 µM [falling, partial curve]"
6,c1ccc2c(c1)OCC(c1csc3ncnc(N4CCOCC4)c13)O2 (centres undefined),"0.398 µM [rising, full curve]"
7,COCCCNc1nc2c(c(=O)[nH]c(=O)n2C)n1CCCc1ccccc1,"10 µM [rising, partial curve]"
8,O=C(Nc1nnc(C23CC4CC(CC(C4)C2)C3)s1)c1ccco1,"0.501 µM [rising, single point]"
9,COc1ccc(C2CC(c3c(O)cc(C)oc3=O)=NCCS2)c(OC)c1 (centres undefined),"3.16 µM [rising, partial curve]"
10,COc1ccc(S(=O)(=O)N(C)c2ccc(OCC(=O)Nc3cc(C)on3)cc2)cc1,"25.1 µM [rising, single point]"
11,Nc1ccc(-n2ccnc2)cc1,"0.0631 µM [falling, full curve, poor fit]"
12,CCN(CC)S(=O)(=O)c1ccc2c(c1)c(=O)c(C(=O)NCCCN(C)c1ccccc1)cn2C,"10 µM [rising, single point]"
13,COc1ccccc1-c1nc(NCCN2CCOCC2)c2ccccc2n1,"10 µM [rising, partial curve]"
14,CN1CCN(c2nc3c(c(=O)[nH]c(=O)n3C)n2Cc2cccc3ccccc23)CC1,"12.6 µM [rising, partial curve]"
15,COc1ccc(S(=O)(=O)N2CCN(Cc3cccc(Cl)c3)CC2)cc1,"12.6 µM [falling, partial curve]"
16,CN1CCN(CCCNC(=O)C2CCN(c3nnc(-n4cccc4)s3)CC2)CC1,"0.501 µM [falling, partial curve]"
17,Cc1cc(=O)[nH]c(-n2nc(C)c(Oc3ccccc3O)c2C)n1,"3.16 µM [rising, partial curve]"
18,CC(=O)c1cc(-c2ccccc2)[nH]c1N1CCCC1,"12.6 µM [falling, partial curve]"
19,Brc1ccc(-c2cnc(-c3cccs3)o2)cc1,"12.6 µM [rising, partial curve]"
20,Cc1nc2c(c(=O)n1CCC1=CCCCC1)c1nc3ccccc3nc1n2/N=C/c1ccco1,"20 µM [rising, single point]"
21,O=C(c1ccc(Br)cc1)N1CCN(S(=O)(=O)c2ccccc2)CC1,"12.6 µM [rising, single point]"
22,O=C(CCn1c(=S)[nH]c2ccccc2c1=O)NCCCN1CCCC1=O,"0.0398 µM [falling, full curve, poor fit]"
23,O=S(=O)(c1cccs1)N1CCN(CC(O)COc2cc(Cl)ccc2Cl)CC1 (centres undefined),"25.1 µM [falling, single point]"

row,Structure (SMILES),AC50
1,CCOC(=O)c1cnc(SC)nc1Nc1cccc(F)c1,"7.94 µM [rising, partial curve]"
2,CCc1ccc(-c2cn(-c3nc(C)cc(C)n3)c(=N)o2)cc1,"10 µM [falling, partial curve]"
3,CCCOc1ccc(C(=O)NCc2cccnc2)cc1,"20 µM [falling, single point]"
4,Cc1ccc(S(=O)(=O)NCCOc2nc(N(C)C)nc(N3CCOCC3)n2)cc1,"31.6 µM [falling, partial curve]"
5,COc1ccc2c(=O)cc(C(F)(F)C(F)(F)F)oc2c1,"1 µM [falling, partial curve, poor fit]"
6,CC(NC(=O)c1ccccc1O)c1ccccc1 (centres undefined),"0.316 µM [rising, partial curve]"
7,CCOC(=O)CSc1nnc(CNc2ccccc2Cl)n1-c1ccccc1,"0.251 µM [falling, partial curve, poor fit]"
8,O=S1(=O)C=C(Sc2nnc(-c3ccccc3)o2)c2ccccc21,"3.16 µM [falling, full curve]"
9,COc1cc(/C=C(\C#N)C(N)=O)cc(CSc2nc3ccccc3s2)c1O,"25.1 µM [rising, partial curve]"
10,CCOC(=O)Nc1sc(C(=O)N(CC)CC)c(C)c1C(=O)OCC,"1.26 µM [rising, partial curve]"
11,CCN(CCO)Cc1cn[nH]c1-c1ccc(C)c(C)c1,"3.98 µM [falling, single point]"
12,COc1ccc(NC(=O)c2ccc(Cl)c(S(=O)(=O)N3CCc4ccccc4C3)c2)cn1,"10 µM [falling, partial curve]"
13,O=C(CN1CCCC1)NCC1(c2ccccc2)CCOCC1,"20 µM [rising, single point]"
14,Cc1nc(N2CCN(c3ccccc3)CC2)c2c3c(sc2n1)CCC3,"2.51 µM [rising, full curve]"
15,Cc1cccc(-n2c(O)c(C=NCCCN3CCOCC3)c3ccccc3c2=O)c1,"12.6 µM [rising, partial curve]"
16,COc1ccc(CN2CCN(c3ccccn3)CC2)c(OC)c1,"0.00316 µM [falling, full curve, poor fit]"
17,CCOc1ccccc1C(=O)NC1CC2CCCC(C1)N2Cc1nnnn1Cc1ccco1 (centres undefined),"10 µM [rising, single point]"
18,O=C(CCCn1c(=S)[nH]c2ccc(Br)cc2c1=O)N1CCN(c2ccccn2)CC1,"2.51 µM [rising, single point]"
19,Cc1nc2c(C(=O)N3CCCC3)c[nH]n2c(=O)c1Cc1ccc(F)cc1Cl,"0.126 µM [falling, partial curve, poor fit]"
20,CCCCOc1cccc(NC(=O)CSc2nccn2C)c1,"5.01 µM [rising, single point]"
21,CCOC(=O)c1ccccc1NC(=O)COC,"25.1 µM [rising, single point]"
22,Cc1nnc2sc(-c3ccc(-c4ccc(Cl)c(C(F)(F)F)c4)o3)nn12,"10 µM [rising, single point]"
23,CCOC(=O)c1c(NC(=O)CNCCO)sc(C)c1C,"12.6 µM [rising, single point]"

# Some of the entries so far, with bars between the fields.
row | Structure (SMILES) | AC50
3 | CCCOc1ccc(C(=O)NCc2cccnc2)cc1 | 20 µM [falling, single point]
4 | Cc1ccc(S(=O)(=O)NCCOc2nc(N(C)C)nc(N3CCOCC3)n2)cc1 | 31.6 µM [falling, partial curve]
5 | COc1ccc2c(=O)cc(C(F)(F)C(F)(F)F)oc2c1 | 1 µM [falling, partial curve, poor fit]
6 | CC(NC(=O)c1ccccc1O)c1ccccc1 (centres undefined) | 0.316 µM [rising, partial curve]
7 | CCOC(=O)CSc1nnc(CNc2ccccc2Cl)n1-c1ccccc1 | 0.251 µM [falling, partial curve, poor fit]
8 | O=S1(=O)C=C(Sc2nnc(-c3ccccc3)o2)c2ccccc21 | 3.16 µM [falling, full curve]
9 | COc1cc(/C=C(\C#N)C(N)=O)cc(CSc2nc3ccccc3s2)c1O | 25.1 µM [rising, partial curve]
10 | CCOC(=O)Nc1sc(C(=O)N(CC)CC)c(C)c1C(=O)OCC | 1.26 µM [rising, partial curve]
11 | CCN(CCO)Cc1cn[nH]c1-c1ccc(C)c(C)c1 | 3.98 µM [falling, single point]
12 | COc1ccc(NC(=O)c2ccc(Cl)c(S(=O)(=O)N3CCc4ccccc4C3)c2)cn1 | 10 µM [falling, partial curve]
13 | O=C(CN1CCCC1)NCC1(c2ccccc2)CCOCC1 | 20 µM [rising, single point]
14 | Cc1nc(N2CCN(c3ccccc3)CC2)c2c3c(sc2n1)CCC3 | 2.51 µM [rising, full curve]
15 | Cc1cccc(-n2c(O)c(C=NCCCN3CCOCC3)c3ccccc3c2=O)c1 | 12.6 µM [rising, partial curve]
16 | COc1ccc(CN2CCN(c3ccccn3)CC2)c(OC)c1 | 0.00316 µM [falling, full curve, poor fit]
17 | CCOc1ccccc1C(=O)NC1CC2CCCC(C1)N2Cc1nnnn1Cc1ccco1 (centres undefined) | 10 µM [rising, single point]
18 | O=C(CCCn1c(=S)[nH]c2ccc(Br)cc2c1=O)N1CCN(c2ccccn2)CC1 | 2.51 µM [rising, single point]
19 | Cc1nc2c(C(=O)N3CCCC3)c[nH]n2c(=O)c1Cc1ccc(F)cc1Cl | 0.126 µM [falling, partial curve, poor fit]
20 | CCCCOc1cccc(NC(=O)CSc2nccn2C)c1 | 5.01 µM [rising, single point]
21 | CCOC(=O)c1ccccc1NC(=O)COC | 25.1 µM [rising, single point]
22 | Cc1nnc2sc(-c3ccc(-c4ccc(Cl)c(C(F)(F)F)c4)o3)nn12 | 10 µM [rising, single point]
23 | CCOC(=O)c1c(NC(=O)CNCCO)sc(C)c1C | 12.6 µM [rising, single point]
